Data taken from article PMC5437272, “ISCA1 is essential for mitochondrial Fe4S4 biogenesis in vivo” (Nature Communications, 2017).
No constants are given. Whether binding was seen depends on the method and setting. Binding seen in cells or lysates may run through a third protein. Some results given as binding are weak or reduced against the parent protein; the word gives no strength. Where a sequence is shown, tags or fusion partners need not be part of it.

Target: T1, ISCA1-Flag (mouse ISCA1 with a C-terminal Flag epitope) (mouse) (UniProt Q9D924)
T1 sequence: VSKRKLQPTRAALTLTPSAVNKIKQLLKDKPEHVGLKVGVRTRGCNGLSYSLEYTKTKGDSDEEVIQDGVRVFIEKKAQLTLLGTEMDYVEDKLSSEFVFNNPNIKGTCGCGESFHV
Experiment: co-IP; Flag M2 resin IP from mitochondria-enriched extracts of N2a cells transfected with ISCA1-Flag, ISCA2-Flag or IBA57-Flag, versus control IP; western blot of the eluates

binding: binds
B1: NFU1 (endogenous, N2a) (protein, UniProt Q9QZ23 30-255)
chain: FKKQPLHQYVRRPLFPLRAPLCNTVRFMFIQTQDTPNPNSLKFIPGKPVLETRTMDFPTPAAAFRSPLARQLFRIEGVKSVFFGPDFITVTKENEELDWNLLKPDIYATIMDFFASGLPLVTEETPPPPGEAGSEEDDEVVAMIKELLDTRIRPTVQEDGGDVIYRGFEDGIVRLKLQGSCTSCPSSIITLKSGIQNMLQFYIPEVEGVEQVMDDDESDEKEANSS
